According to patent US20110039756A1 (basisnote AG, priority 2007, published 2011):

Legend:
peptide synthesis = conditions: whole synthesis, HPLC
[1] = Blind odour test of peptide solutions by twenty participants; conditions: for Odour Note (N = 20): 2.125 mg peptide in 6 ml deionised water, blind test on 150 mm filter paper, rated by 20 participants; for Consistency (N = 20): average consistency with which the individual solution could be recognized, 2.125 mg in 6 ml deionised water, 20 participants

| Sequence | purity (crude or final not stated) (peptide synthesis) | Odour Note (N = 20) [1] | Consistency (N = 20) [1] |
| --- | --- | --- | --- |
| DEYIYRHFE | 78.3% | – | – |
| DEYIYRHFE [SEQ ID NO: 626] | – | Mild, Acidic | 0.6 |
| EYPDRIMNTF (ligand of HLA-A*24 (A24)) | 77.8% | – | – |
| EYPDRIMNTF (ligand of HLA-A*24 (A24)) [SEQ ID NO: 3] | – | Acidic, Rubber | 0.8 |
| IAFNSGMEPGVVAEKV (ligand of HLA-DPB1*0401) | 88.2% | – | – |
| IAFNSGMEPGVVAEKV (ligand of HLA-DPB1*0401) [SEQ ID NO: 13] | – | Mossy | 1 |

For part of these data: Plain letter strings leave the end groups untold.
